The whole screen tested about 320,000 compounds, of which about 2,100 (0.66%) were called active. The inconclusive results got no clear call from the source; some entries with a clear call stand among them for comparison. The call rests on the fitted dose curve; in most records, active means well fitted inhibition curve with a large enough effect in the signal ratio, with a control signal flat (not every such curve was filed as active); inconclusive means small, poorly fitted or top-dose-only effect, or effect the other way, or a change in a side signal; inactive means flat fitted curve, though single readings scatter; the % refers to the signal ratio. Where the call is inconclusive, the potency comes from a doubtful curve fit.
Test: qHTS Assay for Lipid Storage Modulators in Drosophila S3 Cells
Settings: BODIPY lipid droplet fluorescence, 18-24 h, cells fed with added oleic acid; lipid storage change, negative = inhibition: at 46.1 µM (top of the series) unless noted
How it was run: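 Drosophila S3 cells loaded with oleic acid (400 uM, as added) and compounds at several concentrations; lipid droplets imaged by 488-nm laser-scanning cytometry, 500–530 nm intensity and object ratio to cell channel. Percent activity normalized to 20 uM Triacsin C.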
In the case of `CCOC(=O)c1ccc2c(c1)[nH]c(=S)n2CC`, the lipid storage change, negative = inhibition is reported as inconclusive: 10.7%. For `O=C(CCN1C(=O)[C@@H]2Cc3ccccc3CN2C1=O)N[C@@H](Cc1ccccc1)C(=O)O`, the lipid storage change, negative = inhibition was inconclusive: 22.6%. For `O=C(NCc1ccco1)c1cccc(S(=O)(=O)N2CCOCC2)c1`, the lipid storage change, negative = inhibition was inconclusive: 3.11%. For `COc1ccccc1NS(=O)(=O)c1ccc2c(c1)OCCO2`, the Potency was inconclusive: 20.6 µM [activator, single point]. In the case of `CCOC(=O)Cc1csc(Nc2c(C)n(C)n(-c3ccccc3)c2=O)n1`, the lipid storage change, negative = inhibition is reported as inconclusive: -5.84%. For `Fc1ccc(COc2cccc3cccnc23)cc1`, the lipid storage change, negative = inhibition was inconclusive: 5.25%. In the case of `CCOc1cc(C(=O)N2CCc3cc(OC)c(OC)cc3C2)ccc1OC(F)F`, the lipid storage change, negative = inhibition is reported as inconclusive: 33.9%. For `CC12CCC(C(=O)N3CCN(Cc4ccccc4)CC3)(OC1=O)C2(C)C` (stereo unspecified), the lipid storage change, negative = inhibition was inconclusive: -20.5%. For `Cc1ccnc(SCc2cn3c(C)cc(C)nc3n2)n1`, the lipid storage change, negative = inhibition was inconclusive: 15.6%. With `Cn1c(SCC(=O)Nc2ccc(F)cc2)nc2c(c1=O)SCC2` the lipid storage change, negative = inhibition was inconclusive: -32.3%. With `COc1ccc(NC(=O)c2sc3ncn(CC(=O)N4CCCCC4)c(=O)c3c2C)cc1OC` the lipid storage change, negative = inhibition was inconclusive: 13.7%. In the case of `CCOc1ccccc1/C=N/n1c(COc2ccccc2)n[nH]c1=S`, the lipid storage change, negative = inhibition is reported as inconclusive: 193%. With `CCC(C)(C)n1nnnc1C(C(C)C)N1CCSCC1` (stereo unspecified) the lipid storage change, negative = inhibition was inconclusive: -73.9%. With `Cc1ccccc1C(=O)Nc1ccc(C(=O)N/N=C/c2ccc(O)cc2)cc1` the Potency was inconclusive: 29.1 µM [falling, single point]. With `CCc1nc(CNC(=O)C2CCC(=O)N(CCc3ccc(OC)cc3)C2)cs1` (stereo unspecified) the lipid storage change, negative = inhibition was inconclusive: -4.48%. For `O=C(Cc1ccc(Cl)cc1Cl)NCC1(N2CCOCC2)CCCCC1`, the lipid storage change, negative = inhibition was inconclusive: 46.5%. With `O=C(NCc1ccco1)c1scc2c1OCCO2` the lipid storage change, negative = inhibition was inconclusive: 13.6%. With `Cc1nn(C(=O)c2cccc([N+](=O)[O-])c2)c(C)c1Sc1ccccc1` the lipid storage change, negative = inhibition was inconclusive: 15.6%. With `Fc1cccc(/C=N/Nc2ccc(Cl)nn2)c1` the lipid storage change, negative = inhibition was inconclusive: -28.7%. In the case of `COc1cc(/C=C2\C(=O)NN(c3ccccc3)C2=O)ccc1OCC(N)=O`, the lipid storage change, negative = inhibition is reported as inconclusive: -66.5%. For `COC(=O)CC(c1ccc(C#N)cc1)n1c(C)ccc1C` (stereo unspecified), the lipid storage change, negative = inhibition was inconclusive: -24.5%. For `COc1ccc(CC(=O)Nc2oc(-c3ccccc3)c(-c3ccccc3)c2C#N)cc1OC`, the Potency was inconclusive: 18.4 µM [cytotoxic, partial curve]. With `O=C(NCCc1ccccn1)c1n[nH]c(=O)c2ccccc12` the lipid storage change, negative = inhibition was inconclusive: 41.3%. With `Cc1ccc(Cn2ncc3c(N4CCN(C5CCCC5)CC4)ncnc32)cc1` the lipid storage change, negative = inhibition was inconclusive: 0.327%. In the case of `O=C(CCNC(=O)c1ccccc1Cl)Nc1cc(S(=O)(=O)N2CCOCC2)ccc1N1CCCC1`, the lipid storage change, negative = inhibition is reported as inconclusive: -16.2%. In the case of `CCOC(=O)Cc1csc(SCC(=O)Nc2oc(C)c3c(C)n[nH]c(=O)c23)n1`, the Potency is reported as inconclusive: 0.0065 µM [activator, full curve, poor fit]. For `COc1ccc(N2C(=O)CC(S/C(N)=N/N=C/c3ccnc4ccccc34)C2=O)cc1` (stereo unspecified), the lipid storage change, negative = inhibition was inconclusive: 0.575%. For `COc1ccc(C/C(O)=C(\C#N)c2nc3ccccc3[nH]2)cc1OC`, the lipid storage change, negative = inhibition was inconclusive: 16.9%. For `Cn1cc(Br)c(NS(=O)(=O)c2ccc(Cl)s2)n1`, the lipid storage change, negative = inhibition was “inactive”. In the case of `CC(C)(C)c1cc(NC(=O)Nc2ccccc2)no1`, the lipid storage change, negative = inhibition is reported as inconclusive: -4.88%. With `CC(=O)Nc1ccc(C(=O)N/N=C/c2cc(Br)cc(Br)c2O)cc1` the Potency was inconclusive: 1.03 µM [falling, partial curve]. In the case of `COc1cc(NS(C)(=O)=O)ccc1Nc1c2ccccc2nc2ccccc12`, the lipid storage change, negative = inhibition is reported as inconclusive: 21.7%. In the case of `CS(=O)(=O)Nc1ccc(C2=NN(C(=O)C3CCCCC3)C(c3cccs3)C2)cc1` (stereo unspecified), the Potency is reported as inconclusive: 6.51 µM [activator, single point]. In the case of `N#Cc1nc(-c2ccc(Cl)cc2)oc1NCC1CCCO1` (stereo unspecified), the lipid storage change, negative = inhibition is reported as inconclusive: 23.3% [at 9.22 µM]. With `COc1ccc2[nH]cc(CCNC(=O)c3ccc4ccccc4n3)c2c1` the lipid storage change, negative = inhibition was inconclusive: 2.22%. With `CC(C)CCN(C(=O)C1CSC2(C)CCC(=O)N12)c1c(N)n(Cc2ccccc2)c(=O)[nH]c1=O` (stereo unspecified) the lipid storage change, negative = inhibition was inconclusive: 36.5% [at 0.0737 µM]. In the case of `O=C(CN1CCN(S(=O)(=O)c2ccccc2[N+](=O)[O-])CC1)Nc1ccc(N2CCOCC2)cc1`, the lipid storage change, negative = inhibition is reported as “inactive”. In the case of `COC(=O)C1=C(C)N(c2cc(C)cc(C)c2)/C(=C/c2ccco2)C1=O`, the lipid storage change, negative = inhibition is reported as inconclusive: 30.6%. For `O=C(COC(=O)c1cccc(F)c1)Nc1ccc2c(c1)OCCO2`, the Potency was inconclusive: 0.651 µM [falling, full curve]. With `O=C1N(CN2CCC3(CC2)OCCO3)c2ccccc2C12OCCCO2` the lipid storage change, negative = inhibition was inconclusive: 2.04%. For `COc1ccc(CCNC(=O)CCS(=O)(=O)c2ccc3c(c2)NC(=O)C(C)S3)cc1OC` (stereo unspecified), the Potency was inconclusive: 23.1 µM [activator, single point]. In the case of `Cc1nn(C(=O)c2ccco2)c(C)c1Sc1ccc([N+](=O)[O-])cc1`, the lipid storage change, negative = inhibition is reported as inconclusive: -73.3%. In the case of `COc1ccc(NC(=O)C2CCCN(C(=O)Nc3ccc(OC)cc3)C2)cc1` (stereo unspecified), the Potency is reported as active: 1.03 µM. In the case of `Cc1[nH]c(=O)[nH]c(=O)c1S(=O)(=O)N1CCCCC1`, the lipid storage change, negative = inhibition is reported as inconclusive: -30%. In the case of `CS(=O)(=O)N1CCN(C(=O)Cc2ccc([N+](=O)[O-])cc2)CC1`, the lipid storage change, negative = inhibition is reported as inconclusive: 11.9%. With `COc1ccc(N(C2=NCCCS2)S(=O)(=O)c2ccc(C(C)(C)C)cc2)cc1` the lipid storage change, negative = inhibition was inconclusive: -24.6%. With `O=C(COc1ccc2c(c1)CCC2)N1CCc2ccccc21` the Potency was inconclusive: 3.66 µM [falling, single point]. In the case of `CC(c1ccco1)N(C(=O)c1ccc(F)cc1)c1ccccn1` (stereo unspecified), the lipid storage change, negative = inhibition is reported as inconclusive: 23.5%. For `O=C(COC(=O)COc1ccccc1)NC1CCCC1`, the lipid storage change, negative = inhibition was “inactive”. For `CCOC(=O)c1nn(-c2ccc(Cl)cc2Cl)c(=N)c(C#N)c1C`, the Potency was active: 18.4 µM. For `Cc1ccc(C(=O)NCc2cccnc2)cc1S(=O)(=O)Nc1ccccc1`, the Potency was inconclusive: 0.0046 µM [activator, full curve, poor fit].
On the % scale 0 is the no-effect control and ±100 the full control effect; potency means the concentration at half of the fitted maximal effect.
